Data reported in article PMC10816986, “The Role of Key Amino Acids of the Human Fe(II)/2OG-Dependent Dioxygenase ALKBH3 in Structural Dynamics and Repair Activity toward Methylated DNA” (International Journal of Molecular Sciences, 2024).

Target: T1, ALKBH3 Y143F (Homo sapiens) (UniProt Q96Q83)
T1 sequence (looked up, limits assumed): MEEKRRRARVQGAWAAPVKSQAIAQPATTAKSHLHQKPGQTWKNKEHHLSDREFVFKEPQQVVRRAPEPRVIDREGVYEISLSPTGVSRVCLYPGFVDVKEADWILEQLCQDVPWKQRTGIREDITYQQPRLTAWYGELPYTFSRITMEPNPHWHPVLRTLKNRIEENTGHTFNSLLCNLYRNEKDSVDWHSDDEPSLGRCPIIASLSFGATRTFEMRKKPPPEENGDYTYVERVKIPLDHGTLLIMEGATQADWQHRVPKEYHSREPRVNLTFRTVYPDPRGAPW
Experiment: intrinsic Trp fluorescence titration
Settings: apoprotein, 2 mM EDTA, no Fe(II)/2OG; N3-methylcytosine at position 9; Titration: 50 mM HEPES-KOH pH 7.8, 50 mM KCl, 10 mM MgCl2, 2 mM EDTA, 25 °C, 1 µM apoprotein; recombinant protein; protein details: N-terminal His-tag (pET28a); single-stranded DNA

## ACAGGATCCGGCATA [m3C]
  Kd: 3.8 µM

The exact form of at least one protein or probe is not confirmed. Where a protein sequence is shown, tags need not be part of it.
